Results are given in words; binding and its absence hold for the method and conditions named. Binding seen in cells or lysates may run through a third protein. Some entries that bind do so weakly or less than the wild type.
Tests used:
Assay in all cases: co-IP
[1] = target: XIAP, endogenous in HEK293T cells (human (endogenous in HEK293T)) (UniProt P98170)
[2] = target: Myc-BIRC6 (mouse) (mouse) (UniProt O88738)
[3] = target: BIRC6, endogenous in HEK293T cells (human (endogenous in HEK293T)) (UniProt Q9NR09)

Amino acid sequences for entries named in this document (tags omitted). A change or cut given only in a name is not applied to a line headed by its entry.
UniProt P98170: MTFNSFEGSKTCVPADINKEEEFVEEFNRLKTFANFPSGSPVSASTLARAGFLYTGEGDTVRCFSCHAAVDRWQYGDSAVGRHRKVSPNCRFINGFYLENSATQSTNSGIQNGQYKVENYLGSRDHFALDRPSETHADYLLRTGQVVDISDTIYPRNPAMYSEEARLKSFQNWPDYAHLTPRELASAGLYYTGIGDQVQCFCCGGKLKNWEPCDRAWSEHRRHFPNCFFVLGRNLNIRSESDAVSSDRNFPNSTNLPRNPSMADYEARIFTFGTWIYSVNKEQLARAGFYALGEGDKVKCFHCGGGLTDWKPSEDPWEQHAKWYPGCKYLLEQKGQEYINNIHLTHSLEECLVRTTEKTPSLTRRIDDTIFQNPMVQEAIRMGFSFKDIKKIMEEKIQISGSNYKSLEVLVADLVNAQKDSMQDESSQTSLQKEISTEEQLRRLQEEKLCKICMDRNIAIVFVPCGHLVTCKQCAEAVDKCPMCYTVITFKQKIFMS
UniProt Q9NR09: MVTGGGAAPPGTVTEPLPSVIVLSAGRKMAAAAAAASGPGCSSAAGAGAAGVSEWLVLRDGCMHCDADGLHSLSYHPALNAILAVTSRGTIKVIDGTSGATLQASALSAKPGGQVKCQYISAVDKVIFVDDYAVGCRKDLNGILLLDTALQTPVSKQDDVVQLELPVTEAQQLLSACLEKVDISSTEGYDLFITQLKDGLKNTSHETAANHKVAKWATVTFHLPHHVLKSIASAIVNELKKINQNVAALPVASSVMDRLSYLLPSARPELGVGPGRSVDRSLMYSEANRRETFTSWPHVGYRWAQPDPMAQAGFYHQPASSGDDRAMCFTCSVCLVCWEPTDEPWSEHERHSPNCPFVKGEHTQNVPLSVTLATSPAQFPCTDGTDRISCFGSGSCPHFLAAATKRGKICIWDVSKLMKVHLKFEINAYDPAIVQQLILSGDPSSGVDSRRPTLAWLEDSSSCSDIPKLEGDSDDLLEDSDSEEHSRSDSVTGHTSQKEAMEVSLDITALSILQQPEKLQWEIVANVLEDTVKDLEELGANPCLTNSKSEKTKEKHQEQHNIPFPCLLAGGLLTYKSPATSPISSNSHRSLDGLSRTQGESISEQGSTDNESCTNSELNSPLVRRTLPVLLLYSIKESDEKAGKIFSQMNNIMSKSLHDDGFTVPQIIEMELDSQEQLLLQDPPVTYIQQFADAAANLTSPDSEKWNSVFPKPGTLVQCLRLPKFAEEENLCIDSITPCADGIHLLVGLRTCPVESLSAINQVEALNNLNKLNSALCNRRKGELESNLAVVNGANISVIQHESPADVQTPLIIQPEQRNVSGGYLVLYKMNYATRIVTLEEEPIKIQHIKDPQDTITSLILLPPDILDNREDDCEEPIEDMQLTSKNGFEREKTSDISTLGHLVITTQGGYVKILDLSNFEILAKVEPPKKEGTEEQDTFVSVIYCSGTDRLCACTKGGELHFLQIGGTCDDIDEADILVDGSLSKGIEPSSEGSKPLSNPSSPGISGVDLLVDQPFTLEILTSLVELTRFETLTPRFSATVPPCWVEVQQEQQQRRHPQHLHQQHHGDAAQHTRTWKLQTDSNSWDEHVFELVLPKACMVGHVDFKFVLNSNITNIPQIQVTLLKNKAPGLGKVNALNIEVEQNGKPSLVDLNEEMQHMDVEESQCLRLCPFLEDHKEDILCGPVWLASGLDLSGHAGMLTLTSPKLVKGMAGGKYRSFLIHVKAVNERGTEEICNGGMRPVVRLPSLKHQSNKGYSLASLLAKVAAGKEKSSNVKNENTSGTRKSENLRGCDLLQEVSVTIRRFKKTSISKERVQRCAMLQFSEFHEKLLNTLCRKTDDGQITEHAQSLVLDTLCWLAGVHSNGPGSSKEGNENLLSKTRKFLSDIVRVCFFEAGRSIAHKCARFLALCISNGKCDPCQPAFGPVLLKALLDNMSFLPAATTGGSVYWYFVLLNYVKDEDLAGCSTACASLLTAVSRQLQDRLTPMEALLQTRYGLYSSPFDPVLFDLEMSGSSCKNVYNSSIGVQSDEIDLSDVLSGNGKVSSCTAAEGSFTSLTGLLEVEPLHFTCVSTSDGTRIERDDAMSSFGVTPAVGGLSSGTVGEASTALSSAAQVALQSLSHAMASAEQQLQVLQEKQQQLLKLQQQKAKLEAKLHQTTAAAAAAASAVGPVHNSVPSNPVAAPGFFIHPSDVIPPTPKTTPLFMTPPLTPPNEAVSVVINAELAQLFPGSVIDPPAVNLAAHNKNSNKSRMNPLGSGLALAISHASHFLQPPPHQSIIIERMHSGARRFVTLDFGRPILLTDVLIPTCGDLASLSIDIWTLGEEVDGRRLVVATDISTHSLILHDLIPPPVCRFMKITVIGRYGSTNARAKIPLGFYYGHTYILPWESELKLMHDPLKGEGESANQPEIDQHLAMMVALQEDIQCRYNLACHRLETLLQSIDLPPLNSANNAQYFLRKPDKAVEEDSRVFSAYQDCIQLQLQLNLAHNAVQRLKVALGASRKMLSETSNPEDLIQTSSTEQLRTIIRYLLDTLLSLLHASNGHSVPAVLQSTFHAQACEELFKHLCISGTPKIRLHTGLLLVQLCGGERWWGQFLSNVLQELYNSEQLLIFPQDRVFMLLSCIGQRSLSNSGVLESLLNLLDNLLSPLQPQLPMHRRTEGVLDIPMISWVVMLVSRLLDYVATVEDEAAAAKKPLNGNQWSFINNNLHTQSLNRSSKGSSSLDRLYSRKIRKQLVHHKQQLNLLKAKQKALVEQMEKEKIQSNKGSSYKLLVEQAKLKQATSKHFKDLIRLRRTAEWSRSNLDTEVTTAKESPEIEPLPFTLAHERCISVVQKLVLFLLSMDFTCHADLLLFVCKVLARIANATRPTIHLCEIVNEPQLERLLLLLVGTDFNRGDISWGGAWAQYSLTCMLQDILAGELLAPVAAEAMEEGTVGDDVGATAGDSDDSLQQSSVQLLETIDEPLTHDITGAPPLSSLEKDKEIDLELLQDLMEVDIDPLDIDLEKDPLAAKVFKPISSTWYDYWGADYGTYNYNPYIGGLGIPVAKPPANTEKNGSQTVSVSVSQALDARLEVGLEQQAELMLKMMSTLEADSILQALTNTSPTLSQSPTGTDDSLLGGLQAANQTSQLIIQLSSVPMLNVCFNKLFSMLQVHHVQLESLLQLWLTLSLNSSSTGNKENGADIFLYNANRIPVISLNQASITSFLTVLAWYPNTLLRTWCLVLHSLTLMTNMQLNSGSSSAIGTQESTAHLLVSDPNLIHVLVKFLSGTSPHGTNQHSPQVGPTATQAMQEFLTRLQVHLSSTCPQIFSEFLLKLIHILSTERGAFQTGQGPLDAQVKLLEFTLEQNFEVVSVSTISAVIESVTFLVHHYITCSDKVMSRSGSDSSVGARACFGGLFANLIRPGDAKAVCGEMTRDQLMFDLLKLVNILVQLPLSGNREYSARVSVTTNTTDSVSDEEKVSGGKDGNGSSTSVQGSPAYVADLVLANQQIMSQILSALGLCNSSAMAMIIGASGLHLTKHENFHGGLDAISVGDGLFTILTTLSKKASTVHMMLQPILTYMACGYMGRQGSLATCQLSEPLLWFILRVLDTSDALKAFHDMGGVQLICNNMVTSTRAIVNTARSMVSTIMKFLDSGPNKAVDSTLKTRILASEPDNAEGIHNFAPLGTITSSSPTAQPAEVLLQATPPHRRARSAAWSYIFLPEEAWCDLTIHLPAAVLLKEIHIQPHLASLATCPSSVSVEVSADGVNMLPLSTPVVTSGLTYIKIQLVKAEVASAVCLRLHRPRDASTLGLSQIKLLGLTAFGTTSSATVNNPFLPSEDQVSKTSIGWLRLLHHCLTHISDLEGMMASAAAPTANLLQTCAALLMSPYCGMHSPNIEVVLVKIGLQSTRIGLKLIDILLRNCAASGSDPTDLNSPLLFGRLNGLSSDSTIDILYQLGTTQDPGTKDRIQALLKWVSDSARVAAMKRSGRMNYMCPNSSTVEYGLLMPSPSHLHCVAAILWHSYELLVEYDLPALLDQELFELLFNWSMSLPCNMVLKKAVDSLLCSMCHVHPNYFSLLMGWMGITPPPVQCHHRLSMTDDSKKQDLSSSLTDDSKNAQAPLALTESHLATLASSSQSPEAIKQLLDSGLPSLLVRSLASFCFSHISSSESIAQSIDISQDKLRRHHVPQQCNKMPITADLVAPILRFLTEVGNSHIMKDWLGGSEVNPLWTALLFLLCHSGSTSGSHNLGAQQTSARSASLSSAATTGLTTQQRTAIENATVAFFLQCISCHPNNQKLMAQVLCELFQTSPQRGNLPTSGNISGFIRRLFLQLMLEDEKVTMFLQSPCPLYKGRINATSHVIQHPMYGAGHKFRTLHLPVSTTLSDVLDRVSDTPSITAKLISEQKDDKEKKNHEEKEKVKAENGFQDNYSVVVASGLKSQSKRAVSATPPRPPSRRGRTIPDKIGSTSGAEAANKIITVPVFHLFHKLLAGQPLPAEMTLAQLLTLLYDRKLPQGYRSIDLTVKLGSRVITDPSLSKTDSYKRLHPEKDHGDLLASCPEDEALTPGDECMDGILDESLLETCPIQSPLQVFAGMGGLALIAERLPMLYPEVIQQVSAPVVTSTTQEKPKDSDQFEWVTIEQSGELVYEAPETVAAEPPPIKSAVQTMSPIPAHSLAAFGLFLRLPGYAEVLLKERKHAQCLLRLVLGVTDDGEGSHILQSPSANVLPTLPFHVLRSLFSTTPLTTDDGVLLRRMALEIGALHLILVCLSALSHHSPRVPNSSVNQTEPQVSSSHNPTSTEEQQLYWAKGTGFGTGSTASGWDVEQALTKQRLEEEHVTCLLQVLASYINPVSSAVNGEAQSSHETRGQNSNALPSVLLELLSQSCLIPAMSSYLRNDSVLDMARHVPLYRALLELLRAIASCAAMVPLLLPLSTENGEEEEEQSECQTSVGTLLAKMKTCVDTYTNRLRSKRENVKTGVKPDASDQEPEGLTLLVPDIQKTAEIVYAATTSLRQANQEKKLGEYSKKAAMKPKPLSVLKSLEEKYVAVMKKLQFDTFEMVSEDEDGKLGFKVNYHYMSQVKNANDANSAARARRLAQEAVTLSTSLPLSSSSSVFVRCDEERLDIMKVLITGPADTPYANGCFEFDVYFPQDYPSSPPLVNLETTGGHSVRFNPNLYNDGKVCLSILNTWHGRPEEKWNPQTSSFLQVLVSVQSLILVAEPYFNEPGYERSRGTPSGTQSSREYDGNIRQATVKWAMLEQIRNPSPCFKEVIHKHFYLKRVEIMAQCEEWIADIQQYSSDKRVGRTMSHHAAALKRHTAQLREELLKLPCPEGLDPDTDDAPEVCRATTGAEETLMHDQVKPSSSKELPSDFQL
UniProt P55211: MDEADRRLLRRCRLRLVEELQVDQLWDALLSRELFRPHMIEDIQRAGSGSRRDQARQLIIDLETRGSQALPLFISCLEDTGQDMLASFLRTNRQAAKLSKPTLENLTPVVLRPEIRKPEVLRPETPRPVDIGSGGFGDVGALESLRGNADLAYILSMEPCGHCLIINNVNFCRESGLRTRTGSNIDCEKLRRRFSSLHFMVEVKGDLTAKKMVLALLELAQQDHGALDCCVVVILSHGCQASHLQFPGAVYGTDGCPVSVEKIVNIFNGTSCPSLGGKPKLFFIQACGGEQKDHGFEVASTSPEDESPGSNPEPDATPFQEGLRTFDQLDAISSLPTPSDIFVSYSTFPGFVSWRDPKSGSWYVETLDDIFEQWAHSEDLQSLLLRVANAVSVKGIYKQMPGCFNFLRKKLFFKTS

Row | Substance | binding [1] | binding [2] | binding [3]
1 | FLAG-tagged procaspase 9 quadruple mutant (E306A–D315A–D330A–C287A) (from UniProt P55211 1-416) (enzyme) | binds | binds | binds
2 | FLAG-tagged procaspase 9 triple mutant (E306A–D315A–D330A) (from UniProt P55211 1-416) (enzyme) | – | binds | –
